Test results taken from US20200270557A1, “HUMAN IN VITRO ORTHOTOPIC AND METASTATIC MODELS OF CANCER” (PRESIDENT AND FELLOWS OF HARVARD COLLEGE, priority 2017, published 2020).
At least one compound was matched to its structure with a doubt left.

Assays:
Assay type in all cases: cell-based, human
EGFR = EGFR tyrosine phosphorylation in NSCLC cells in FlexCell culture plate with or without cyclic mechanical strain
H1975 NSCLC cells = experiment: NSCLC cancer cell growth in microfluidic device (orthotopic lung model) with or without breathing motions; details: for sensitivity of cancer cells to growth inhibition: in the presence of physiological breathing motions / mechanical strain (FIG. 6B, right)
lung tumor cells = experiment: cytokine levels (IL-6, IL-8, VEGF) in effluent of microfluidic devices, electrochemiluminescence immunoassay
[1] = both static and breathing microfluidic devices

Compound: C=CC(=O)Nc1cccc(Nc2nc(Nc3ccc(N4CCN(C(C)=O)CC4)cc3OC)ncc2C(F)(F)F)c1 [rociletinib]
- tyrosine kinase phosphorylation at EGFR sites Y845, Y998 and Y1068 (EGFR; absence of breathing motions, 0, 100, 500 or 1000 nM for 2 days): inhibition of tyrosine kinase phosphorylation
- inhibition of tyrosine kinase phosphorylation at EGFR sites Y845, Y998 and Y1068 (EGFR; mechanically stimulated cells (10% strain; 0.2 Hz)): greatly diminished
- response of NSCLC cells to TKIs (H1975 NSCLC cells; H1975 NSCLC cells cultured within the microfluidic devices): responded
- sensitivity of cancer cells to growth inhibition (H1975 NSCLC cells): resistant to growth inhibition
- sensitivity of cancer cells to growth inhibition (H1975 NSCLC cells; listed as TKI drug): almost completely resistant
- growth suppression of cancer cells (H1975 NSCLC cells; microfluidic device without breathing motions, 100 nM (FIG. 6B, left)): complete growth suppression
- VEGF levels (lung tumor cells; [1]): increased
- levels of IL-6 (lung tumor cells; [1]): significantly reduced
- levels of IL-8 (lung tumor cells; [1]): significantly reduced
- level of suppression of the two interleukins (IL-6, IL-8) (lung tumor cells; chips exposed to physiological breathing motions compared with static chips): significantly greater
